According to the supplement of paper PMC12819154, “High-throughput peptide-centric local stability assay extends protein–ligand identification to membrane proteins, tissues and bacteria” (Nature Structural & Molecular Biology, 2025):
Some of the results follow. Most values lie at the level of the controls, where differences are scatter.

Protein sequences, listed by entry. Tags and fused reporters are not part of them. Lines headed by an entry give the natural chain unless they say otherwise; changes in a name come on top.
UniProt P41247: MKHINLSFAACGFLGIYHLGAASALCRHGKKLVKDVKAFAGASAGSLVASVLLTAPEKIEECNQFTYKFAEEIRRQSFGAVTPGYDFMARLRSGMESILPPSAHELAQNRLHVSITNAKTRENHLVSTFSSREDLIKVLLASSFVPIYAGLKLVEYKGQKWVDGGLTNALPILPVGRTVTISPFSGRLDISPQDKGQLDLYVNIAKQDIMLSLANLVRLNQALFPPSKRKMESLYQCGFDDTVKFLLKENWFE
UniProt P35270: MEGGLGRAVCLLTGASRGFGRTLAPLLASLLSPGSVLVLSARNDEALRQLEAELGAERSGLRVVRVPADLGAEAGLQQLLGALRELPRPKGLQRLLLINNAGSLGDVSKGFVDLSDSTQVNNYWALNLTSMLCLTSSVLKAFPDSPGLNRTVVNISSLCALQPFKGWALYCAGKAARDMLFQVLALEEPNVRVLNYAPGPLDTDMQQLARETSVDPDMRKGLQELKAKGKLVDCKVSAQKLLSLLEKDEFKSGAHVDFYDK
UniProt P38919, whole entry: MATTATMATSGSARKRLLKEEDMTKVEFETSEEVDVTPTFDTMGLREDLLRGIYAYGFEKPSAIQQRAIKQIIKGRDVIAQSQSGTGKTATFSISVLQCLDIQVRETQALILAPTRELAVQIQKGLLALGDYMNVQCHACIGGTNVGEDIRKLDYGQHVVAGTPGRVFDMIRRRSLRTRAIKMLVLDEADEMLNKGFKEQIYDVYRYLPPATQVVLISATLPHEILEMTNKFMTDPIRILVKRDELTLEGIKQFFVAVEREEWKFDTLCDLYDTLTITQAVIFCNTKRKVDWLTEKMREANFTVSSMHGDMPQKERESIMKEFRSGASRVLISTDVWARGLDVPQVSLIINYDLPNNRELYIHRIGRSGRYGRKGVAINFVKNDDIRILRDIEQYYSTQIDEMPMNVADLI
UniProt P40926: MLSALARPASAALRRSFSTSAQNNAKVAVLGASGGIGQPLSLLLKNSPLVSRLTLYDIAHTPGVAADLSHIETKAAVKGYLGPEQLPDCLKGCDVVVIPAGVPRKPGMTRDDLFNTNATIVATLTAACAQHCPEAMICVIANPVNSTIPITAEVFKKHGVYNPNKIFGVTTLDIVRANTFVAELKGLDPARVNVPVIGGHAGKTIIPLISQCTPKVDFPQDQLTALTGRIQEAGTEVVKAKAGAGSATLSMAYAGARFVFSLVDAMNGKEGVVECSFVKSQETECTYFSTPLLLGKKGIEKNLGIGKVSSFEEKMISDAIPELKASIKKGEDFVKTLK
UniProt P42126: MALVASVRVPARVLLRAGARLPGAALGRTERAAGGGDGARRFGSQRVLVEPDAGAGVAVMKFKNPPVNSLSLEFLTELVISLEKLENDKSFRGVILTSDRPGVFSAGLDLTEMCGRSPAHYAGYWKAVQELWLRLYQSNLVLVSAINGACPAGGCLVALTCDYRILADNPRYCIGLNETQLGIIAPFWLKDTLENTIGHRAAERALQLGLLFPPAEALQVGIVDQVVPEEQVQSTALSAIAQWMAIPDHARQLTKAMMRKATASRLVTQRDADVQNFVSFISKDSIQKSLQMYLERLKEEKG
UniProt P36543, whole entry: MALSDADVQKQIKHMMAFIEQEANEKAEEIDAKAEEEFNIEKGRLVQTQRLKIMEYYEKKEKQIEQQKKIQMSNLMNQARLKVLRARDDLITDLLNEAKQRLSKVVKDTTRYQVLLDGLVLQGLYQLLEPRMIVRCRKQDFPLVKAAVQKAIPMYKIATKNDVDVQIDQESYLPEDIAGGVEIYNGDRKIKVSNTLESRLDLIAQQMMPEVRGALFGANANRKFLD
UniProt P35611: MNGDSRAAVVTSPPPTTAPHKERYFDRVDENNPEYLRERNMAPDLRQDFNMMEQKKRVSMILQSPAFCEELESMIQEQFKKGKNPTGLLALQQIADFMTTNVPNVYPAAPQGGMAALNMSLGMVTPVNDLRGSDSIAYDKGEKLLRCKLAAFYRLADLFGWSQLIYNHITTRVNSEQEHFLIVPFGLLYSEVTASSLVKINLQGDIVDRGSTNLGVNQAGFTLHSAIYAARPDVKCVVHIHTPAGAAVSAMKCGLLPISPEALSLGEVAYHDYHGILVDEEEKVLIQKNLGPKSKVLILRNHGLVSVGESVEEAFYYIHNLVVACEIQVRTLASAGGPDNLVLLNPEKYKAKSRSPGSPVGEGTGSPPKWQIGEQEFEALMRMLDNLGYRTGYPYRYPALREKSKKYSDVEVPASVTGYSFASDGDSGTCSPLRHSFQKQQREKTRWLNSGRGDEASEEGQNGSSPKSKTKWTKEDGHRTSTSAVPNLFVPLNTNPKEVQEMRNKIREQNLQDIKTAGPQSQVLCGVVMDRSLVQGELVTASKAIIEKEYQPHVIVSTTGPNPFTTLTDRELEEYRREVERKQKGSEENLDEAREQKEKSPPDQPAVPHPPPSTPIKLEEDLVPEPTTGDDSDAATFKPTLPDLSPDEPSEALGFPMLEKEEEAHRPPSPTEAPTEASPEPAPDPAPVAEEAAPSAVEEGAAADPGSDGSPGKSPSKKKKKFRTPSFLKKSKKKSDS
UniProt P40306: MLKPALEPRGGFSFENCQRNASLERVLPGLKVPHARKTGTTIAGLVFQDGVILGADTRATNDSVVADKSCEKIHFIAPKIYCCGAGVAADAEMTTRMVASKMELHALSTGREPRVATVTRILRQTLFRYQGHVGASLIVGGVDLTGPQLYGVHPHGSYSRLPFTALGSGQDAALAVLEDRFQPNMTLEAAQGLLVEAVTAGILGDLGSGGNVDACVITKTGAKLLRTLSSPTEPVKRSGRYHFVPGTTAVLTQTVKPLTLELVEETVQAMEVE
UniProt P35250, whole entry: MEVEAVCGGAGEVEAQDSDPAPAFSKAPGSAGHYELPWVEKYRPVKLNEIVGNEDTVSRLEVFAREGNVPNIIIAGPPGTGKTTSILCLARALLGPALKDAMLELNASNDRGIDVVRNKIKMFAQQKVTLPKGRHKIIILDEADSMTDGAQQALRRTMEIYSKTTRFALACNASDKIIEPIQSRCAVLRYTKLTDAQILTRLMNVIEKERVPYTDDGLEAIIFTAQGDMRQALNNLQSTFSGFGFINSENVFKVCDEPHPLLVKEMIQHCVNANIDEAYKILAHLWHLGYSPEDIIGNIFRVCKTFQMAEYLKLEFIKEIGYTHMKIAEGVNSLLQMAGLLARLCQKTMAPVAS
UniProt P41743, whole entry: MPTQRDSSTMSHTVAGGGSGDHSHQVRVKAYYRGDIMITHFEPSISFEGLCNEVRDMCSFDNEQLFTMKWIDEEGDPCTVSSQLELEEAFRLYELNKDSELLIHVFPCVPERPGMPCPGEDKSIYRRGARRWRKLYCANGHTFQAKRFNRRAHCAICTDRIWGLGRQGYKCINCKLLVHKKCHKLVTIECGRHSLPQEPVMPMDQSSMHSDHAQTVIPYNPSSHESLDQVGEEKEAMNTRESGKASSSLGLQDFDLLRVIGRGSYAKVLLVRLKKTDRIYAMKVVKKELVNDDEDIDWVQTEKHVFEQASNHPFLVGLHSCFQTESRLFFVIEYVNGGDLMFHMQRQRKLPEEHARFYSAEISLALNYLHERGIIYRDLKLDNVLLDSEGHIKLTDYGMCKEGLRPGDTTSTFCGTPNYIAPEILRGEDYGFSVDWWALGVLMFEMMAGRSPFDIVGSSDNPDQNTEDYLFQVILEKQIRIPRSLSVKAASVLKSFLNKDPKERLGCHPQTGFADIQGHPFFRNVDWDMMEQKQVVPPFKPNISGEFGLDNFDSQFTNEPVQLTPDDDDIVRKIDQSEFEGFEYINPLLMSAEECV
UniProt P35232: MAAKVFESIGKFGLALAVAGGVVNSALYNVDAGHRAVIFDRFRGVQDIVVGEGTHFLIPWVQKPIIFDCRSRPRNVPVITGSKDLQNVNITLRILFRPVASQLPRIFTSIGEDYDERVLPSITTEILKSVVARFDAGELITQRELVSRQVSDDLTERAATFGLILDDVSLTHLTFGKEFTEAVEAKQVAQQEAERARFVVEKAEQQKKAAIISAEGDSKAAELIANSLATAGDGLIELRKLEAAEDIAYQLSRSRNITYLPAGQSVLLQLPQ
UniProt P35713: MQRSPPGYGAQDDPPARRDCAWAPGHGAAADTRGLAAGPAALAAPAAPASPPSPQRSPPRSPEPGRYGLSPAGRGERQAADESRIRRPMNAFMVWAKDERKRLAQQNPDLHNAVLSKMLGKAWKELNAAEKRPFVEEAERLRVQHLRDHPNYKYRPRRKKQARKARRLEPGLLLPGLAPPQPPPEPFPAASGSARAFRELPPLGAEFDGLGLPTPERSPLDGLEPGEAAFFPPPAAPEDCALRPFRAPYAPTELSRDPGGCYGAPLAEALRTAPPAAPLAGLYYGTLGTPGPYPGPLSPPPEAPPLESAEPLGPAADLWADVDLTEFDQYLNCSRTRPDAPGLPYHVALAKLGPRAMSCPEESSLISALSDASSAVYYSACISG
UniProt P32519: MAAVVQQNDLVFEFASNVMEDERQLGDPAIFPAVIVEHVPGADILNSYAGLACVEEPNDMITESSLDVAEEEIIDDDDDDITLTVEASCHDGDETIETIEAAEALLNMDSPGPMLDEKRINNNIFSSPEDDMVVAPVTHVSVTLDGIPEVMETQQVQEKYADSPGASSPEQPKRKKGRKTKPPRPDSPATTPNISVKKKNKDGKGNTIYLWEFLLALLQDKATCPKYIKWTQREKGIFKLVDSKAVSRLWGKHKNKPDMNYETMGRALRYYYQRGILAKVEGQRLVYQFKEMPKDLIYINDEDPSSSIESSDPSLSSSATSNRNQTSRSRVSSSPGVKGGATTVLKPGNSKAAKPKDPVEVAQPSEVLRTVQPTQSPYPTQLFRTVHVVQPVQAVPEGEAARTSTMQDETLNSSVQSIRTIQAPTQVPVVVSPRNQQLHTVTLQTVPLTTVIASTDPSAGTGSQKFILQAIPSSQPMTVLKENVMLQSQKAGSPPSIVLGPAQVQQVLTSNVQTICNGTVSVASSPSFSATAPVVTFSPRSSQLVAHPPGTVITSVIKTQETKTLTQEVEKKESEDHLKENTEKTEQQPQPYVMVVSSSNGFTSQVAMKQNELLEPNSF
UniProt P41214: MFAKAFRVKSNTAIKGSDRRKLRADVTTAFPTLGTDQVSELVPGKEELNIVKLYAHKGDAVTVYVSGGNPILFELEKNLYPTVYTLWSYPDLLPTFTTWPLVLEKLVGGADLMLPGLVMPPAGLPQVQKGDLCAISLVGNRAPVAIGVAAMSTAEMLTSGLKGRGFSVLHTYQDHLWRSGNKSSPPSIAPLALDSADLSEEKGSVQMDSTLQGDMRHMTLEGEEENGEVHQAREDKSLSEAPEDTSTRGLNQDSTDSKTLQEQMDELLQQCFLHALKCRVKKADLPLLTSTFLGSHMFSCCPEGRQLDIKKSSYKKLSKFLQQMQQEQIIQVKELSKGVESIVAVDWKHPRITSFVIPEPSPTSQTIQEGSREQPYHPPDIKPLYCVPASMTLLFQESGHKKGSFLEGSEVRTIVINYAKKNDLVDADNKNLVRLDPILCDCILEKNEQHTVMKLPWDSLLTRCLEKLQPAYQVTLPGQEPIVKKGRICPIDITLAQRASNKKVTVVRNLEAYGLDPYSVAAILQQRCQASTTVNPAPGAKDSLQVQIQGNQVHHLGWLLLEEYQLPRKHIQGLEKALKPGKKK
UniProt P41219, whole entry: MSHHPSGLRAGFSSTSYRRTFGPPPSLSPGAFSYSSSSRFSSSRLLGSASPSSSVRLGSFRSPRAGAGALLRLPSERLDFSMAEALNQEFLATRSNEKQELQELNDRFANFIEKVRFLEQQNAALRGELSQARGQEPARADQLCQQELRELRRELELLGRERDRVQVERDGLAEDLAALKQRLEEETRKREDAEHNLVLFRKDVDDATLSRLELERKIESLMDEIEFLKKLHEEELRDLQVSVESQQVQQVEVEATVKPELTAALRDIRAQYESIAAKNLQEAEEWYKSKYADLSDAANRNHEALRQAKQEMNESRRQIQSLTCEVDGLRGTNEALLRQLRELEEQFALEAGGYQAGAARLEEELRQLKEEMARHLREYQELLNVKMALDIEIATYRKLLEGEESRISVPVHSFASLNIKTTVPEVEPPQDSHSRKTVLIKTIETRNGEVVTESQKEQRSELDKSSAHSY
UniProt P29992, whole entry: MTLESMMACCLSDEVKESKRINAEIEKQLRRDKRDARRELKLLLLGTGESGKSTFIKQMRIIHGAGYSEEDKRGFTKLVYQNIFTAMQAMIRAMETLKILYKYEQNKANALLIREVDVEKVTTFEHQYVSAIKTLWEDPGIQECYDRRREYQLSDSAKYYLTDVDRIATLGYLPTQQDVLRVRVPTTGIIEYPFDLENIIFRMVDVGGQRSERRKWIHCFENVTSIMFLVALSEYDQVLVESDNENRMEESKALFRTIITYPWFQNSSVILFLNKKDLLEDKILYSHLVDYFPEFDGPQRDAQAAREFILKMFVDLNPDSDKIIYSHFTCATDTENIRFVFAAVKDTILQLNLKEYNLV

The targets below were run with Cc1nc(Nc2ncc(C(=O)Nc3c(C)cccc3Cl)s2)cc(N2CCN(CCO)CC2)n1 [dasatinib] (assay: log2 fold change of tryptic peptide abundance, ligand vs vehicle (limited proteolysis) (log2 ratio); higher = more trypsin-susceptible (destabilized)). Details: ligand concentration: 5 uM; sample: K562 cleared lysate.
“PNPLA4 (peptide sequence: KMESLYQCGFDDTVK, peptide start residue: 230) (UniProt P41247)” gave a log2 fold change of 0.477.
“SPR (peptide sequence: SGAHVDFYDK, peptide start residue: 252) (UniProt P35270)” gave a log2 fold change of -0.132.
For “EIF4A3 (peptide sequence: MREANFTVSSMHGDMPQKER, peptide start residue: 297) (UniProt P38919)”, the log2 fold change was 0.63.
In the case of “MDH2 (peptide sequence: IFGVTTLDIVR, peptide start residue: 166) (UniProt P40926)”, the log2 fold change was -0.251.
Target “UniProt P42679 (peptide sequence: AWHPPPVSAR, peptide start residue: 32)” has a log2 fold change of -0.499.
“UniProt P42126 (peptide sequence: SLQMYLER, peptide start residue: 289)” gave a log2 fold change of -0.305.
Target “ALDH4A1 (peptide sequence: QVAQNLDRFHTFPR, peptide start residue: 297) (UniProt P30038)” has a log2 fold change of 0.494.
In the case of “ATP6V1E1 (peptide sequence: ARDDLITDLLNEAK, peptide start residue: 86) (UniProt P36543)”, the log2 fold change was -0.239.
With “ADD1 (peptide sequence: QKGSEENLDEAR, peptide start residue: 583) (UniProt P35611)” the log2 fold change was 0.18.
Target “PSMB10 (peptide sequence: TLSSPTEPVKR, peptide start residue: 227) (UniProt P40306)” has a log2 fold change of 0.481.
For “MKI67 (peptide sequence: DSLSKPEK, peptide start residue: 459) (UniProt P46013)”, the log2 fold change was -0.488.
Work on “UniProt P41279 (peptide sequence: SAYPSYLYIIHK, peptide start residue: 334)” yielded a log2 fold change of -0.0784.
“RFC2 (peptide sequence: VCDEPHPLLVK, peptide start residue: 254) (UniProt P35250)” was tested, and the log2 fold change was 0.518.
With “SRI (peptide sequence: ALTTMGFR, peptide start residue: 128) (UniProt P30626)” the log2 fold change was 0.0605.
Target “UniProt P41743 (peptide sequence: DLKLDNVLLDSEGHIK, peptide start residue: 378)” has a log2 fold change of -0.203.
Work on “PHB (peptide sequence: QVAQQEAER, peptide start residue: 187) (UniProt P35232)” yielded a log2 fold change of 0.574.
Work on “PTPN6 (peptide sequence: GLDCDIDIQK, peptide start residue: 477) (UniProt P29350)” yielded a log2 fold change of 0.287.
Target “HMOX2 (peptide sequence: ETLEDGFPVHDGK, peptide start residue: 247) (UniProt P30519)” has a log2 fold change of 0.305.
“UniProt P35713 (peptide sequence: RPMNAFMVWAKDER, peptide start residue: 623)” showed a log2 fold change of -0.064.
Work on “BMI1 (peptide sequence: SKEEVNDKR, peptide start residue: 154) (UniProt P35226)” yielded a log2 fold change of 0.152.
Target “FDFT1 (peptide sequence: CLGHPEEFYNLVR, peptide start residue: 6) (UniProt P37268)” has a log2 fold change of 0.114.
Work on “ELF1 (peptide sequence: ESEDHLKENTEK, peptide start residue: 573) (UniProt P32519)” yielded a log2 fold change of 0.771.
“CPS1 (peptide sequence: GILIGIQQSFRPR, peptide start residue: 1361) (UniProt P31327)” was tested, and the log2 fold change was -0.0568.
“UniProt P42356 (peptide sequence: LCERFPVVVHSVTPSLR, peptide start residue: 492)” was tested, and the log2 fold change was -0.449.
“UniProt P41214 (peptide sequence: GLNQDSTDSK, peptide start residue: 249)” showed a log2 fold change of 0.187.
“PRPH (peptide sequence: ISVPVHSFASLNIK, peptide start residue: 407) (UniProt P41219)” showed a log2 fold change of 0.435.
“PRDX6 (peptide sequence: DINAYNCEEPTEKLPFPIIDDR, peptide start residue: 85) (UniProt P30041)” showed a log2 fold change of 0.331.
With “GNA11 (peptide sequence: MVDVGGQR, peptide start residue: 225) (UniProt P29992)” the log2 fold change was 0.176.
“PCSK6 (peptide sequence: QAFEYGIK, peptide start residue: 324) (UniProt P29122)” gave a log2 fold change of 0.439.
